Experimental findings from publication PMC5833712 are described below.

Protein sequences, listed by entry. Tags and fused reporters are not part of them.
UniProt Q09472: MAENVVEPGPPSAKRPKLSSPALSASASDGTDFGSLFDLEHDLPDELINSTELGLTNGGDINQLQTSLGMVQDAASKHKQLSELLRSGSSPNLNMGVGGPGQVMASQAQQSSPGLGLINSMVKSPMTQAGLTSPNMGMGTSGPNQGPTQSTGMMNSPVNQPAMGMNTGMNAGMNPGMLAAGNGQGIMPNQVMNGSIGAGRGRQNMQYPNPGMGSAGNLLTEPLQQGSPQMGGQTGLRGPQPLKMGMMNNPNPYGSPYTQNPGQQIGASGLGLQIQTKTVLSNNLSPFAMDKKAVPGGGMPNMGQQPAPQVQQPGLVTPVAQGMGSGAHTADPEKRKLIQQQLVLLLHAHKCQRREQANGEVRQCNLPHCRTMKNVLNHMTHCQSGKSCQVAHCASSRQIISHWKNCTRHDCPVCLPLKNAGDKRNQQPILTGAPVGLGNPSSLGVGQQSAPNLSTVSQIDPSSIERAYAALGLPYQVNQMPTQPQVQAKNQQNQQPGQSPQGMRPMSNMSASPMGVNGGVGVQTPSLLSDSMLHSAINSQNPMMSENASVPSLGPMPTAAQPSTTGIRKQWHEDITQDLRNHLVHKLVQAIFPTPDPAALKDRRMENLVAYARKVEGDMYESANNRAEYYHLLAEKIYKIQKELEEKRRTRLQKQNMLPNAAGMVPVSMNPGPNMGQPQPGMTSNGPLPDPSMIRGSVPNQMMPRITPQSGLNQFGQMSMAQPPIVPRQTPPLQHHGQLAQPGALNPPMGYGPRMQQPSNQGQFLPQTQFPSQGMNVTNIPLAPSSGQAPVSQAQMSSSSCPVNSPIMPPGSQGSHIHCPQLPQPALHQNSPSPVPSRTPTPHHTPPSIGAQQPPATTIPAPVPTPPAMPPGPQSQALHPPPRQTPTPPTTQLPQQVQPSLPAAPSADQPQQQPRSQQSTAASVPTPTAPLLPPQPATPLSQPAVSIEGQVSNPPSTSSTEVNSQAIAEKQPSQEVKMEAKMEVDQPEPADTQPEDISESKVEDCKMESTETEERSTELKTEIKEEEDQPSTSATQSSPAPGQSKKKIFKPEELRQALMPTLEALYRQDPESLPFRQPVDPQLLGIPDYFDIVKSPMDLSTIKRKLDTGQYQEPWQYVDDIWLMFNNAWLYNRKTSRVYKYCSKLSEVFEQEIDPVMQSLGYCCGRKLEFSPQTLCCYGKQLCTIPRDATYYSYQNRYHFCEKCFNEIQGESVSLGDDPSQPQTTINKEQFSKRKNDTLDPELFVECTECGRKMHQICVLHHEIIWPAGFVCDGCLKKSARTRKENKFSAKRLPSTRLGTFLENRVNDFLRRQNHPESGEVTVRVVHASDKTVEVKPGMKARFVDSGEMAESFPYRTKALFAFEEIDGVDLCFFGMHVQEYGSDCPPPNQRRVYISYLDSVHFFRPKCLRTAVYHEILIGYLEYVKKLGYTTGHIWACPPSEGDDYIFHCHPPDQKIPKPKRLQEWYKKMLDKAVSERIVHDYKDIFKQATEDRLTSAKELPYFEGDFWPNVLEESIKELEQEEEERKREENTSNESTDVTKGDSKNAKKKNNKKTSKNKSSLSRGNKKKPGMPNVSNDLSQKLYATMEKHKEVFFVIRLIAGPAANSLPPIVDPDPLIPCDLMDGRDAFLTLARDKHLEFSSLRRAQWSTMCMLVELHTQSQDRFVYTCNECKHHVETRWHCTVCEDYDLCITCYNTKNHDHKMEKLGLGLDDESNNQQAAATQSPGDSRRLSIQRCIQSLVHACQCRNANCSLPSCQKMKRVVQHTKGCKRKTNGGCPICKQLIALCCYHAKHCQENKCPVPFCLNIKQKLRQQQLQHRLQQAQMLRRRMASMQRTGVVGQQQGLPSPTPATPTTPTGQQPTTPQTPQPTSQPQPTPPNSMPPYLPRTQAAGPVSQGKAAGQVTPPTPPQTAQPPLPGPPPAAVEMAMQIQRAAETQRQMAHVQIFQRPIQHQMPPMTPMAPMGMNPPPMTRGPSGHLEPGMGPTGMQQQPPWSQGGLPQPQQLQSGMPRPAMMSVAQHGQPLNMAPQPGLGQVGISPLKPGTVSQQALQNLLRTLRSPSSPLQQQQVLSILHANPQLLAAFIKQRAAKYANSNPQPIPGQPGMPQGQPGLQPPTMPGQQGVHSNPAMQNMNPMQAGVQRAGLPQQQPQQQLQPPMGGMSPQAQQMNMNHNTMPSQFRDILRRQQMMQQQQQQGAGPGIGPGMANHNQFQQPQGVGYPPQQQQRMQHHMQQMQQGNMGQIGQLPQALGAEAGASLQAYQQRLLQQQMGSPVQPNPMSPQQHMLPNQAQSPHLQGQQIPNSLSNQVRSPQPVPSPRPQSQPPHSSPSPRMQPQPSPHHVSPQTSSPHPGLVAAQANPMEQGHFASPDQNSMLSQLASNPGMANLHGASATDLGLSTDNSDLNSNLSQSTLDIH
UniProt Q92731: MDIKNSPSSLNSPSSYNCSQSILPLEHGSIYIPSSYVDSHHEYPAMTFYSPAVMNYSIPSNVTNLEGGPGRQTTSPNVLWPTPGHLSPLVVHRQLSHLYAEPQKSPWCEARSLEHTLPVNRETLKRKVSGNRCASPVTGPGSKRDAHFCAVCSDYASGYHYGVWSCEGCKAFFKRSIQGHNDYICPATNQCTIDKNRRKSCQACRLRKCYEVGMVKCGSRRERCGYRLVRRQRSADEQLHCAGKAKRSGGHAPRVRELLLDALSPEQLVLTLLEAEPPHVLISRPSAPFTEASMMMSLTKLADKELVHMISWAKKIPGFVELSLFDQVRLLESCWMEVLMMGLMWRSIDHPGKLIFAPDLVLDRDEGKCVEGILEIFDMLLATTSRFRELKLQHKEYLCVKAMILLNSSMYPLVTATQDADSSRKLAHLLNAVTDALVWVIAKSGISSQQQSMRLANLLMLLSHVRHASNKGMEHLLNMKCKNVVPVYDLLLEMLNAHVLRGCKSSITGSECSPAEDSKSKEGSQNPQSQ
UniProt P03372: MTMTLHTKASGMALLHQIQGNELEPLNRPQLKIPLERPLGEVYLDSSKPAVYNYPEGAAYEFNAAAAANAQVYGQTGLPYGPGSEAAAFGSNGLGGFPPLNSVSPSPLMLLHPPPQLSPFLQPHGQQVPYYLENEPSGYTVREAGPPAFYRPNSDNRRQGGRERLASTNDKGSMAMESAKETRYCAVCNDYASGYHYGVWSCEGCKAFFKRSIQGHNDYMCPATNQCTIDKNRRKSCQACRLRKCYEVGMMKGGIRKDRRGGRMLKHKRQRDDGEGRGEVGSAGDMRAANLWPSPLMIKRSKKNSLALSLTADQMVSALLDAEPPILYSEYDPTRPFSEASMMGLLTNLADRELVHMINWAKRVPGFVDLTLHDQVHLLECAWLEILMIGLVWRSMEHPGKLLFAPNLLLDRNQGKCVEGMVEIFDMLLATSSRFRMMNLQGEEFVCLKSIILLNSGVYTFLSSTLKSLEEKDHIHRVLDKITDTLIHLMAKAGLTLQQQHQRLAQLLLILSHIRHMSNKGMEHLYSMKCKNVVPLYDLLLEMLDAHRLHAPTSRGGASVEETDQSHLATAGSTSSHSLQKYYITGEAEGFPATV

For experiment [1], the target named is p300 (human (endogenous in A2780cis)) (UniProt Q09472). Kind of experiment: co-IP; p300 immunoprecipitated from lysates of A2780cis cells treated or not with 10 nM KB9520 for 1 h; blots for p300, SIRT1, ERβ.
The target of experiment [2] is Estrogen receptor beta (ERβ) (human (endogenous in A2780cis)) (UniProt Q92731). Kind of experiment: condition: only after knock-down of KDM6B (siRNA, 48 h); co-IP; ERβ immunoprecipitated from lysates of A2780cis cells transfected 48 h with KDM6B-specific siRNA, treated or not with 10 nM KB9520 for 2 h; blots for AcLys, ERβ, p300.
The target is the same in experiment [3]. Kind of experiment: co-IP; ERβ immunoprecipitated (antibody, protein A-Sepharose, 1 h, 4 °C) from 1% NP-40 lysates (2 mg protein) of A2780cis cells treated or not with 10 nM KB9520 for 2 h; blots for AcLys, ERβ, p300; also cells with non-specific siRNA, SIRT1 siRNA or the SIRT1 inhibitor EX527.
Experiment [4] addresses Estrogen receptor alpha (ERα), wild type (UniProt P03372). The experiment is described as follows: co-IP; p300:ERα association with and without KB9520 (Fig. S5); which protein was precipitated was not shown.

No constants are given. Whether binding was seen depends on the method and setting. Binding seen in cells or lysates may run through a third protein. Some entries that bind do so weakly or less than the wild type.

Regarding “Estrogen receptor beta (ERβ) (from UniProt Q92731 1-530)”, the binding entry in experiment [1] is on record as “binds”.
With p300 (from UniProt Q09472 1-2414), the binding result in experiment [2] was “no binding”; in experiment [3], “binds”; in experiment [4], “binds”.
